Data: patent publication US20180092962
Construct, isoform or probe ends are uncertain for at least one entry. No signal at the amounts used counts as a negative. Where a protein sequence is shown, tags need not be part of it.

Molecular target: T1, His-sLZIP (human small leucine zipper protein) (Homo sapiens) (UniProt O43889)
T1 sequence: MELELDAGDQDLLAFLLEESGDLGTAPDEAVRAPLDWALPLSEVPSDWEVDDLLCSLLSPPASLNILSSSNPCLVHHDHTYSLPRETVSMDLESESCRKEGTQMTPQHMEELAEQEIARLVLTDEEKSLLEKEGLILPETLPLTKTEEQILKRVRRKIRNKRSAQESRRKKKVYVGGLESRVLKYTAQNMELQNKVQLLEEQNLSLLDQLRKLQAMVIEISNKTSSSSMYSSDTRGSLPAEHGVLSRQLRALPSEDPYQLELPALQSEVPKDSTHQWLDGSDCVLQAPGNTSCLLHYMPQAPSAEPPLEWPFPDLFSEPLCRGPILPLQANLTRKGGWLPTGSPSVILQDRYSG
Assay: EMSA
Details: purified recombinant protein, protein details: His tag (pET-28a(+), E. coli BL21), label: 5'-32P

## GAAGGGATTGATGTCAGCAGGA (double strand) [#2 CREB/AP-1 probe, FABP4 enhancer]
dose-dependent, supershifted by anti-His, competed by 100-fold unlabeled CREB oligo, poly(dI-dC), room temperature
  binding result: binds

## GAAGGGATTGGGGTCAGCAGGA (double strand) [CREB mutant probe]
AT to GG mutation in CRE abolishes binding, variant of #2 CREB/AP-1 probe, FABP4 enhancer
  binding result: no binding
